# Test results reported in the supplement of paper PMC12819154, “High-throughput peptide-centric local stability assay extends protein–ligand identification to membrane proteins, tissues and bacteria” (Nature Structural & Molecular Biology, 2025).
# Amino acid sequences for entries named in this document (tags omitted). A change or cut given only in a name is not applied to a line headed by its entry.
# UniProt Q8BFX1: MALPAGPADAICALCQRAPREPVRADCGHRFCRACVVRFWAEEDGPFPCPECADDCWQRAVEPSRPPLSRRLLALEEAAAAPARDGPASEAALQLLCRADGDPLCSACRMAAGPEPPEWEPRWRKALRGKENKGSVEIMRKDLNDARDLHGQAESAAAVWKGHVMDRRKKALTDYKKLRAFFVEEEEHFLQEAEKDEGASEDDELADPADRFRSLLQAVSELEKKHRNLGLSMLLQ
# UniProt Q811J3: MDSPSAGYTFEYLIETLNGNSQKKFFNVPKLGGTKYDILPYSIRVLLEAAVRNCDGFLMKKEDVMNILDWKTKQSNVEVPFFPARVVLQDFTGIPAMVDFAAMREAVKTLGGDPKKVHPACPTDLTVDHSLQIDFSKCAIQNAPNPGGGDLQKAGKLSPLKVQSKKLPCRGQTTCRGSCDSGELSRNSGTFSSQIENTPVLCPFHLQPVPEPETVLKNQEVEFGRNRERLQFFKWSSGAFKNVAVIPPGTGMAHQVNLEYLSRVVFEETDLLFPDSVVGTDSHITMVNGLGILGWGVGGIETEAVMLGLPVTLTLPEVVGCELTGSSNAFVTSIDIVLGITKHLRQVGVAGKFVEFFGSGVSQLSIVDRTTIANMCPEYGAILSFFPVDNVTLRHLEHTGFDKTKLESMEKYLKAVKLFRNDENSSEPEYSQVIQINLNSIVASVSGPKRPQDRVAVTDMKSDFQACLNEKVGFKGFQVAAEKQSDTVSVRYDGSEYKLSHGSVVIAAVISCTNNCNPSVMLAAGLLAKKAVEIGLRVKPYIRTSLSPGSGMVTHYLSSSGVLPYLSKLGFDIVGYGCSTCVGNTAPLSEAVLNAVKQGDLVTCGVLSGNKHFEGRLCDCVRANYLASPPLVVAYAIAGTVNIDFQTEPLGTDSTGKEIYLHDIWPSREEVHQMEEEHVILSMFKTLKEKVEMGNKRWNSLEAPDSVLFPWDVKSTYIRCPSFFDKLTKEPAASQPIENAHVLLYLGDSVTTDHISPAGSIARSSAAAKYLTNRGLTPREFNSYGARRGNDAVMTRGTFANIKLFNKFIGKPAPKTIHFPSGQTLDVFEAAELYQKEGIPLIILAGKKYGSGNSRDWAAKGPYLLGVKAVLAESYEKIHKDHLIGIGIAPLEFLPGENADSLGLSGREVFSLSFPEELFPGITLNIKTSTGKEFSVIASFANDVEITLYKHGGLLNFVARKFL
# UniProt Q80VJ3: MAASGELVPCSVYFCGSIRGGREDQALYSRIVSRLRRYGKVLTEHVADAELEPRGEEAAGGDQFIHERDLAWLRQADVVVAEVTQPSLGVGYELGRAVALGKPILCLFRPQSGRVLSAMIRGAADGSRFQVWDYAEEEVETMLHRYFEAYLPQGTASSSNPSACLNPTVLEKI
# UniProt Q80XJ3: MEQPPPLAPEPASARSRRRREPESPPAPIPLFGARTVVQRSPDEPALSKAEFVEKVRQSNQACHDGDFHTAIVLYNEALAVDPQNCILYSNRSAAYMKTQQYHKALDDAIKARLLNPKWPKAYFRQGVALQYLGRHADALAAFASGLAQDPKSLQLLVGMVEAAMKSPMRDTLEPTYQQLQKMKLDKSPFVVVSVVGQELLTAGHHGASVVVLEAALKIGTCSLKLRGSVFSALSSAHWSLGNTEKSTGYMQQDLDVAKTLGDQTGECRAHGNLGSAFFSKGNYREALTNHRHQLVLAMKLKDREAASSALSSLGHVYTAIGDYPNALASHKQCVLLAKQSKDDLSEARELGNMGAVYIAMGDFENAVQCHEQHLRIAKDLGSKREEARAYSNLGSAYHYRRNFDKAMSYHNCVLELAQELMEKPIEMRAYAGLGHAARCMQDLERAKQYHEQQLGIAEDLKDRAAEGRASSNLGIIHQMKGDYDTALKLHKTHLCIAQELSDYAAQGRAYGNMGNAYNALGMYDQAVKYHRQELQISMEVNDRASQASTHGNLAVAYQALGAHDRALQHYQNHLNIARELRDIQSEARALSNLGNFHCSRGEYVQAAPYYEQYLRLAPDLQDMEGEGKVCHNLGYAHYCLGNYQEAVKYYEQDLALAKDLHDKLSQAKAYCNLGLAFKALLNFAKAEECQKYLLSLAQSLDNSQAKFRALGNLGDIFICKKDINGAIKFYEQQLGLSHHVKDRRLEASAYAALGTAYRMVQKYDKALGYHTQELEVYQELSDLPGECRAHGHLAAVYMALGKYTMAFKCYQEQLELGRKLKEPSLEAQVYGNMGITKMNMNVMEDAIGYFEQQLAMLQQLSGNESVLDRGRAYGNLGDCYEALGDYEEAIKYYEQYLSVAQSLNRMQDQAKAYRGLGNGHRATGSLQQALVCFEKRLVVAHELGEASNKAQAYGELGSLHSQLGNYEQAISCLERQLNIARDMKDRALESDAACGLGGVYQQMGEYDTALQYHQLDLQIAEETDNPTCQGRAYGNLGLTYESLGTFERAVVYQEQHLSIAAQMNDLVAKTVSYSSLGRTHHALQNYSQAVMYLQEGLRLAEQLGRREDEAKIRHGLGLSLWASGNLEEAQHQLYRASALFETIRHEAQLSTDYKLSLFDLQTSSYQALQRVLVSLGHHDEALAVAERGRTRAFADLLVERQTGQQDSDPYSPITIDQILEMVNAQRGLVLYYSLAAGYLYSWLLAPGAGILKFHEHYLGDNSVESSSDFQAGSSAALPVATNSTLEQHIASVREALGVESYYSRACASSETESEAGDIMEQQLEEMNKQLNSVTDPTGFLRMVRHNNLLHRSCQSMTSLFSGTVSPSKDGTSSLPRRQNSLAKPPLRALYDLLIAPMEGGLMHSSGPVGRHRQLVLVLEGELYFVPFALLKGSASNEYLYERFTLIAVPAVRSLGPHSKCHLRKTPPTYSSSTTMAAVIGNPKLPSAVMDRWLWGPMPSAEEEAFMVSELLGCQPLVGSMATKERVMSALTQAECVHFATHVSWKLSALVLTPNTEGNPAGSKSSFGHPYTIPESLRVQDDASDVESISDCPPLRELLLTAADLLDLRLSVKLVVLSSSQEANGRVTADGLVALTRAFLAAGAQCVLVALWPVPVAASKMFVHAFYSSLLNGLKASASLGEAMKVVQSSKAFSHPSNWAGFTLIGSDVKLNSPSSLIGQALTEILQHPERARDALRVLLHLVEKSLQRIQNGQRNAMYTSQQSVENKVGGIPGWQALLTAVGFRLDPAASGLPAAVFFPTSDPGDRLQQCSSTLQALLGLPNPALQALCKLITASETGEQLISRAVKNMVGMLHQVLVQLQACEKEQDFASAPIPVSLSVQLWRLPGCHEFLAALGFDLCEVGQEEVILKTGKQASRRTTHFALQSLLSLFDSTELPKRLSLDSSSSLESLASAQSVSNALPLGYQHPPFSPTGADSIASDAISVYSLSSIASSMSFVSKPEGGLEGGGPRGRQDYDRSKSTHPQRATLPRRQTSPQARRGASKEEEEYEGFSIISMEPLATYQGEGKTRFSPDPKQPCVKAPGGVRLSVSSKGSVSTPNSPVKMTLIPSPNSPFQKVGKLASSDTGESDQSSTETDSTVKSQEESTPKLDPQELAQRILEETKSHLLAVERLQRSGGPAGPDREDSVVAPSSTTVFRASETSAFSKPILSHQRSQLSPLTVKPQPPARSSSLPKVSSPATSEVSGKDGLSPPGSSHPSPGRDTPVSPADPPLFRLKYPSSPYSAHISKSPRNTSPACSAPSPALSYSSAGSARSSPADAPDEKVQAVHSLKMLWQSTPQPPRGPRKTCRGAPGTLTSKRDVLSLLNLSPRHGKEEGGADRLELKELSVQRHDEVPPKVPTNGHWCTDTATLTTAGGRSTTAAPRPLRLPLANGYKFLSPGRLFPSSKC
# UniProt Q80W22: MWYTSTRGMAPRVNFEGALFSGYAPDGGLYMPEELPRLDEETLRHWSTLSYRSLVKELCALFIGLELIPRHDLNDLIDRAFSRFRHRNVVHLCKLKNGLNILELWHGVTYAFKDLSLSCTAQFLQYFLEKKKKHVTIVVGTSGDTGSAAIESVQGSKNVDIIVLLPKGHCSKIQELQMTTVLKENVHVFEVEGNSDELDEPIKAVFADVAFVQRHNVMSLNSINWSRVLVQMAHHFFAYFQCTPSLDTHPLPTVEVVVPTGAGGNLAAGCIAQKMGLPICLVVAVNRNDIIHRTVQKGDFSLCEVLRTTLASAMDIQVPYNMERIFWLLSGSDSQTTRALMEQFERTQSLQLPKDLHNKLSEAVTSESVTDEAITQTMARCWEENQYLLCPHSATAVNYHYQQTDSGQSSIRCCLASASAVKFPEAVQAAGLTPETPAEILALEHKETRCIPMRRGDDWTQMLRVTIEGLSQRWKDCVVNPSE
# Some of the results follow. Small differences around the control level are noise.
# Compound: CN[C@@H]1C[C@H]2O[C@@](C)([C@@H]1OC)n1c3ccccc3c3c4c(c5c6ccccc6n2c5c31)C(=O)NC4 [staurosporine]
# Experiment: log2 fold change of tryptic peptide abundance, ligand vs vehicle (limited proteolysis) (log2 ratio); higher = more trypsin-susceptible (destabilized)
# Conditions: ligand concentration: 20 uM; sample: mouse liver crude lysate; replicate design: treated separately
row,Target,log2 fold change
1,"UniProt Q8BFX1 (peptide sequence: ADGDPLCSACR, peptide start residue: 99)",0.0995
2,"UniProt Q811J3 (peptide sequence: GQTTCRGSCDSGELSR, peptide start residue: 171)",0.18
3,"UniProt Q80VJ3 (peptide sequence: AVALGKPILCLFRPQSGR, peptide start residue: 97)",-0.192
4,"UniProt Q80XJ3 (peptide sequence: ASETSAFSKPILSHQR, peptide start residue: 2200)",-0.0306
5,"UniProt Q80W22 (peptide sequence: MGLPICLVVAVNRNDIIHR, peptide start residue: 275)",0.464
